Laboratory results published in the M2OR odorant receptor database.
The list shows a part of the results, in another mix than the full data. Calls are pooled over several reports, among them a noisy single-well screen.

What was measured:
Conditions in all cases: stereoisomer not certain
UniProt Q8VGJ3 = biological target: T1, UniProt Q8VGJ3
T1 sequence (whole entry): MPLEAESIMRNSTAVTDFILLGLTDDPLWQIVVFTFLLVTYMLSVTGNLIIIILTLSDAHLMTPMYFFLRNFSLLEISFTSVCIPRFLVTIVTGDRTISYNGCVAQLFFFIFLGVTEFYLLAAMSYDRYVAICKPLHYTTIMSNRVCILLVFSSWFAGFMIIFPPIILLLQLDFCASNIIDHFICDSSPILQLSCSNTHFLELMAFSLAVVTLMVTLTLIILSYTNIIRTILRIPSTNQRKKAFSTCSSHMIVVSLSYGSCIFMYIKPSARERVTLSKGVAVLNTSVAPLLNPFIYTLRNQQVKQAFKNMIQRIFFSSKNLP
How it was run: (§1)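 Whether a receptor–molecule pair is responsive (active) rests on the original authors' judgment that its measured signal was statistically different from baseline. Pairs without that judgment are non-responsive (inactive). Sources used varied assay methods, commonly transient luciferase assays in mammalian cell lines.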

UniProt Q8VGL0 = biological target: T2, UniProt Q8VGL0
T2 sequence (whole entry): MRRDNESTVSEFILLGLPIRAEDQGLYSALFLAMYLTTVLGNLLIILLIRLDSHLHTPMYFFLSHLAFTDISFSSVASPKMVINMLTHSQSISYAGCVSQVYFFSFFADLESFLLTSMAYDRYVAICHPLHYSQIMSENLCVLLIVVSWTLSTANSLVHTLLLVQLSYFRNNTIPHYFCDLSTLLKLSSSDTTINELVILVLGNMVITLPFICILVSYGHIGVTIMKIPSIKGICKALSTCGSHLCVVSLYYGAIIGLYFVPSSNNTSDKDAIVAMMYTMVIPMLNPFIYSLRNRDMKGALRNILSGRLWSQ
How it was run: as §1

UniProt Q8VGU3 = biological target: T3, UniProt Q8VGU3
T3 sequence (whole entry): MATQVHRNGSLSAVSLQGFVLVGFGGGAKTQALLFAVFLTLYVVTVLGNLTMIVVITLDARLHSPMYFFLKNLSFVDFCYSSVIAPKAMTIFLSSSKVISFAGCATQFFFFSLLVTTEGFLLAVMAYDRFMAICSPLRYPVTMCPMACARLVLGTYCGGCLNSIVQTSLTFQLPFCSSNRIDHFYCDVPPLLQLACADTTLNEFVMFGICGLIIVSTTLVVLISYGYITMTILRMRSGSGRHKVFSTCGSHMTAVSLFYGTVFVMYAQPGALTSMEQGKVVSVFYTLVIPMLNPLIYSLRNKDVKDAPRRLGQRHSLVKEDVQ
How it was run: as §1

UniProt Q8VGV7 = biological target: T4, UniProt Q8VGV7
T4 sequence (whole entry): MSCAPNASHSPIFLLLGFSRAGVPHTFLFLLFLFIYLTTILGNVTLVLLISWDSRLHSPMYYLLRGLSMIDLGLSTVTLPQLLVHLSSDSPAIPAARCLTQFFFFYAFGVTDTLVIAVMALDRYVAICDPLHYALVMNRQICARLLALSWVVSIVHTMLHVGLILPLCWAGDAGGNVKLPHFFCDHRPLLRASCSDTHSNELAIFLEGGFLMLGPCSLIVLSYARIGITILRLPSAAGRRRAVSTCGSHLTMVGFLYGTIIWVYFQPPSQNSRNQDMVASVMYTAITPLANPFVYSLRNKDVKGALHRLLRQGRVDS
How it was run: as §1

UniProt Q8VGW5 = biological target: T5, UniProt Q8VGW5
T5 sequence (whole entry): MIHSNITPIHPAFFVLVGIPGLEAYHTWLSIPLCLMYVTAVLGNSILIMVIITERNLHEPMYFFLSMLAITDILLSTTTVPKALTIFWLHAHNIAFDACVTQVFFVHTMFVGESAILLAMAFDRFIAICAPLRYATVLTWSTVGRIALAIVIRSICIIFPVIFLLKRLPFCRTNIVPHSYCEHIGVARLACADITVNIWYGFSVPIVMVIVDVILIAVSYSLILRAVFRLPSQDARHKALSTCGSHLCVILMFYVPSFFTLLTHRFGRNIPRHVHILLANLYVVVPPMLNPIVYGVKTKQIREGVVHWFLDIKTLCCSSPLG
How it was run: as §1

UniProt Q8VGX3 = biological target: T6, UniProt Q8VGX3
T6 sequence (whole entry): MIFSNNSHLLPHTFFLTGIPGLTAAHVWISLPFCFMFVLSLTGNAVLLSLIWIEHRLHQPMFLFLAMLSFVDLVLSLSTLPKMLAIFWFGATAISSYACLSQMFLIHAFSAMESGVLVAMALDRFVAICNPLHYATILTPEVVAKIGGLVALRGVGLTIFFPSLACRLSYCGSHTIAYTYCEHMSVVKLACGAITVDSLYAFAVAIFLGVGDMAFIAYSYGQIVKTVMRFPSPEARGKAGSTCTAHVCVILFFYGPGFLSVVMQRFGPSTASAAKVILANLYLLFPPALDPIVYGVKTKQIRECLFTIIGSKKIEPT
How it was run: as §1

UniProt Q8VGX5 = biological target: T7, UniProt Q8VGX5
T7 sequence (whole entry): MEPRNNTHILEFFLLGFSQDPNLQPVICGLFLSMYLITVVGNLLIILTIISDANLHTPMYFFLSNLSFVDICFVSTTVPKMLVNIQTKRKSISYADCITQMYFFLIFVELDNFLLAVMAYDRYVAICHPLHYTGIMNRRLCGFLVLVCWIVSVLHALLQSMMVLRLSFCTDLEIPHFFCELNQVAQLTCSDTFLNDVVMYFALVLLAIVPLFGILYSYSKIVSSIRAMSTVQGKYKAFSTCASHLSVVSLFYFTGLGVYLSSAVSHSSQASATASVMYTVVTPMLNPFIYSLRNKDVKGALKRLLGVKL
How it was run: as §1

UniProt Q8VGZ2 = biological target: T8, UniProt Q8VGZ2
T8 sequence (whole entry): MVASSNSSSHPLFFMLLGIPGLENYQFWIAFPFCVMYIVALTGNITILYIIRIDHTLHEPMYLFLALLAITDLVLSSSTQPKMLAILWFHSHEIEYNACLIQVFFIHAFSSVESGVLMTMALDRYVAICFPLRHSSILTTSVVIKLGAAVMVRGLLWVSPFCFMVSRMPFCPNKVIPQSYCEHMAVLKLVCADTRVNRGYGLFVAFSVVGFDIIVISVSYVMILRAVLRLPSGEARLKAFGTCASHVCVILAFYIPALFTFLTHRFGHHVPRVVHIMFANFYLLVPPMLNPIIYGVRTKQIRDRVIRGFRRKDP
How it was run: as §1

Measured: odorant receptor agonist call;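 also: active if original authors judged signal statistically different from baseline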

CCCCCOC(C)=O
inactive: UniProt Q8VGJ3 | UniProt Q8VGL0 | UniProt Q8VGU3 | UniProt Q8VGV7 | UniProt Q8VGW5 | UniProt Q8VGX3 | UniProt Q8VGX5 | UniProt Q8VGZ2
